Reference: patent US20120269765A1
These are yes or no findings as the source states them, for the method shown. Some binding calls cover weakened binding; strength is not graded here.

Protein sequences, listed by entry. Tags and fused reporters are not part of them. Lines headed by an entry give the natural chain unless they say otherwise; changes in a name come on top.
UniProt Q9NPF7: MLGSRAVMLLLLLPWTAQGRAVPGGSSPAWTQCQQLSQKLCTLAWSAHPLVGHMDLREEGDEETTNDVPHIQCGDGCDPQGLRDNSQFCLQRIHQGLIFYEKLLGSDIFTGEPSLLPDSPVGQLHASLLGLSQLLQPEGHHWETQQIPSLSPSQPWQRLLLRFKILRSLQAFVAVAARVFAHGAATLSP

How the values were obtained:
[1] = biological target: T1, extracellular domain of murine IL-12Rβ1 (murine) (UniProt Q60837); test: gel filtration chromatography, co-injection
T1 sequence (looked up): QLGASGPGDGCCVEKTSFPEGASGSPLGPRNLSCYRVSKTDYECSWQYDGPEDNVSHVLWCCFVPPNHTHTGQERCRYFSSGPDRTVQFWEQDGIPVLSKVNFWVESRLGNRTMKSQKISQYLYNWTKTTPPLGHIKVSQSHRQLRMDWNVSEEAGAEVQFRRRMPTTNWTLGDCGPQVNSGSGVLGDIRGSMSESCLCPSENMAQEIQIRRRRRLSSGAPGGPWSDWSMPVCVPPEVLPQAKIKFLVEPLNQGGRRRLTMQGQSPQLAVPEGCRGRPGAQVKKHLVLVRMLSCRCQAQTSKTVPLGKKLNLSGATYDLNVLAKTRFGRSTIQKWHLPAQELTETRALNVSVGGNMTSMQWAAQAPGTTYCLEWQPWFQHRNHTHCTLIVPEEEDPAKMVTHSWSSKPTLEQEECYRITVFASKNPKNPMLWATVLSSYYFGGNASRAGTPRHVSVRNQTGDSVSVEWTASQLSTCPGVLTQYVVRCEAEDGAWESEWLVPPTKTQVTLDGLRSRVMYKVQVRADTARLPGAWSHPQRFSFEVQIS

[2] = biological target: T1, extracellular domain of murine IL-12Rβ1 (murine); test: gel filtration, Coomassie gel of fractions

IL-23 (p19/p40 heterodimer) (from UniProt Q9NPF7 20-189; P29460 23-328) (ligand)
binding [1]: binds | binding [2]: binds
